# Laboratory results published in PubChem BioAssay AID540276 (National Center for Advancing Translational Sciences (NCATS), 2011).
# Screen size: about 300,000 compounds; about 5,400 (1.8%) were called active. Inconclusive means that the source gave no clear call. Such entries were picked first, then a sample of the others. Calls follow the shape of the full dose curve; tested in HEK293 cells. Potencies of inconclusive entries are doubtful fits and often do not repeat.
# Test: qHTS for inhibitors of binding or entry into cells for Marburg Virus
# Details: Marburg virus pseudotyped entry inhibition, cell reporter; series mostly up to 37.8 µM
# Potency is read from the fitted curve at half-maximal effect.
row,SMILES,Potency
1,CC(C)(C)NCc1ccccc1OCc1cccs1,"inconclusive: 29.1 µM [inhibitor, single point]"
2,CC(/C=C/c1ccccc1F)=N\NC(=O)c1ccccc1,inactive
3,Cc1ccc2c(c1)C1CC(C)(O2)N(c2cccc(C(=O)NC3CCN(Cc4ccccc4)CC3)c2)C(=O)N1 (stereo not given),"inconclusive: 10 µM [inhibitor, partial curve, poor fit]"
4,O=C(CSc1ccc(F)cc1)NC12CC3CC(CC(C3)C1)C2,"inconclusive: 35.5 µM [inhibitor, single point]"
5,CCN(CC)C(=S)SCC(=O)c1ccc(F)cc1,"inconclusive: 0.562 µM [activator, partial curve, poor fit]"
6,Cc1cc(=O)[nH]c(SCC(=O)Nc2ccc(F)cc2)c1C#N,inactive
7,Cn1nnnc1SCCCNCc1cccc(OCc2ccc(F)cc2)c1,"inconclusive: 12.6 µM [inhibitor, single point]"
8,COC1OC(CO)C(N=C(C)C)C1O (stereo not given),"inconclusive: 1.12 µM [activator, full curve]"
9,Cn1c(=O)c2c(nc(Oc3ccccc3Cl)n2Cc2ccc(C#N)cc2)n(C)c1=O,"inconclusive: 2.51 µM [inhibitor, partial curve, poor fit]"
10,O=C1CCCC2=C1C(c1cccs1)n1nc(SCc3ccccc3F)nc1N2 (stereo not given),"inconclusive: 29.1 µM [inhibitor, single point]"
11,Cc1cccc(N2CCN(C(=O)C3CCN(c4ncnc5c4nc4n5CCCCC4)CC3)CC2C)c1 (stereo not given),"inconclusive: 15.8 µM [inhibitor, partial curve, poor fit]"
12,COc1ccc(-n2c(C)cc(C3=NNC(=NC4CC4)SC3)c2C)cc1,"inconclusive: 7.08 µM [inhibitor, partial curve]"
13,COc1ccc(S(=O)(=O)N(C)CC(=O)Nc2ccc3c(c2)OCO3)cc1OC,inactive
14,CC(=O)Nc1cccc(Oc2ccc(-c3noc(C)n3)cc2)c1,"inconclusive: 0.0891 µM [activator, full curve, poor fit]"
15,COc1ccccc1N1CCN(C(=O)c2ccccc2N(C)S(=O)(=O)c2ccc(C)cc2)CC1,"inconclusive: 17.8 µM [inhibitor, single point]"
16,CCCn1cnc2c(oc3ccccc32)c1=O,inactive
17,COc1ccc(C2CC(=O)c3cc(OC)c(OC)cc32)cc1OC (stereo not given),inactive
18,O=C(CSc1ncccn1)Nc1ccc(Cl)c(S(=O)(=O)N2CCOCC2)c1,"inconclusive: 14.1 µM [activator, single point]"
19,O=C(NCC1(c2ccccc2)CCCC1)C(=O)Nc1cccc(Br)c1,inactive
20,NS(=O)(=O)c1ccc(CCNCc2cc(Br)ccc2OCc2ccccc2F)cc1,"inconclusive: 2.82 µM [inhibitor, full curve, poor fit]"
21,Cc1sc(NC(=O)c2ccc3ncsc3c2)c(C(N)=O)c1C,"inconclusive: 22.4 µM [inhibitor, single point]"
22,C1CNC2NCCNC2N1 (stereo not given),"inconclusive: 3.55 µM [activator, single point]"
23,O=C(CCn1nnc(-c2cccs2)n1)NCc1ccccc1Cl,inactive
24,O=c1c(-c2nnc(SCc3ccc(Cl)cc3)o2)cccn1Cc1ccccc1,"inconclusive: 13 µM [inhibitor, single point]"

row,SMILES,Potency
1,Cc1c(C(=O)NCCc2ccccc2)oc2ccccc12,active: 6.31 µM
2,NC(=O)CSc1nc2ccccc2n1Cc1ccccc1F,"inconclusive: 6.31 µM [activator, single point]"
3,CC1NC(C)(C)Cc2c1ccc1ccccc21 (stereo not given),"inconclusive: 35.5 µM [inhibitor, partial curve, poor fit]"
4,CCc1ccc(OCCn2c(C3CC(=O)N(Cc4ccc(F)cc4)C3)nc3ccccc32)cc1 (stereo not given),"inconclusive: 7.94 µM [inhibitor, partial curve, poor fit]"
5,COCc1nnc(NC(=O)c2sc3ccccc3c2Cl)s1,inactive
6,NCCc1cc(O)c(O)cc1O,"inconclusive: 0.0628 µM [activator, full curve, poor fit]"
7,O=C(NC1CCCCCC1)c1ccc2c(=O)n3c(nc2c1)CCCCC3,"inconclusive: 2.24 µM [activator, partial curve, poor fit]"
8,Cc1cc(C)cc(N(CCC#N)C(=O)COC(=O)c2nc3nc(C)cc(C)n3n2)c1,"inconclusive: 17.8 µM [activator, partial curve, poor fit]"
9,N[C@@H](Cc1cc(I)c(Oc2cc(I)c(O)c(I)c2)c(I)c1)C(=O)O,"inconclusive: 22.3 µM [inhibitor, single point]"
10,COc1ccc(NC(=S)NCCC(c2ccccc2)c2ccccc2)c(OC)c1,"inconclusive: 35.5 µM [inhibitor, single point]"
11,O=C(NCC1CCCO1)c1ccc(COc2ccccc2Br)cc1 (stereo not given),"inconclusive: 1.41 µM [activator, partial curve]"
12,COc1cccc(C(=O)Nc2nc(-c3ccc(Br)cc3)ns2)c1,inactive
13,CCCC(=O)NC(=S)Nc1ccc(S(=O)(=O)Nc2ccc(OCC)cc2)cc1,"inconclusive: 22.4 µM [inhibitor, single point]"
14,COc1ccc(CNC(=O)c2c(C)nc3ccccn23)cc1,inactive
15,CCOC(=O)Cc1ccc(NC(=O)N(Cc2ccc(CC)cc2)Cc2cn[nH]c2-c2ccc(OC)cc2)cc1,"inconclusive: 1.78 µM [inhibitor, partial curve, poor fit]"
16,CC(=O)Nc1c(Cl)cc([N+](=O)[O-])c2ccccc12,"inconclusive: 0.447 µM [activator, single point]"
17,Nc1nn(-c2ccccc2)nc1C(=O)OCc1ccccc1,"inconclusive: 8.91 µM [activator, partial curve, poor fit]"
18,Cc1ccccc1CNc1ncnc2cc(Cl)ccc12,inactive
19,Cc1cc(C(=O)Nc2sc3c(c2C#N)CCC(C)C3)no1 (stereo not given),"inconclusive: 8.2 µM [inhibitor, partial curve, poor fit]"
20,Cn1nnc(-c2ccc(OCc3ccccc3F)cc2)n1,"inconclusive: 32.6 µM [inhibitor, single point]"
21,c1cc(N2CCCC2)ccc1C(c1nnnn1C1CCCCC1)N1CCOCC1 (stereo not given),"inconclusive: 32.6 µM [activator, partial curve, poor fit]"
22,COc1ccc(CCNc2oc(COc3ccccc3F)nc2C#N)cc1,inactive
23,COCCCn1c(-c2ccccc2)nc2ccccc2c1=O,inactive
24,Cc1cc(C)cc(N2C(N)=NC(N)=NC2c2cccc(Cl)c2)c1 (stereo not given),inactive

row,SMILES,Potency
1,Cc1ccc(NC(=O)CCC(=O)N/N=C/c2cc([N+](=O)[O-])ccc2O)cc1,"inconclusive: 35.5 µM [inhibitor, single point]"
2,O=C(NCc1cccs1)C(=O)NCC(c1ccco1)N1CCN(c2ccc(F)cc2)CC1 (stereo not given),"inconclusive: 29.1 µM [inhibitor, single point]"
3,CCN(CC)CCNCc1cc(Br)ccc1OCC(=O)NCc1ccccc1,"inconclusive: 23.1 µM [inhibitor, partial curve, poor fit]"
4,C[n+]1ccccc1/C=C/c1ccc(F)c(F)c1,"inconclusive: 3.16 µM [activator, single point]"
5,N/C(CN1CCCC1=O)=N\OC(=O)c1ccc(Cl)cc1,inactive
6,O=C(COC(=O)/C=C/c1cccc(F)c1)NC1CCCC1,"inconclusive: 5.62 µM [activator, single point]"
7,Cc1nnc(NC(=O)c2ccc(S(=O)(=O)N(C)Cc3ccccc3)cc2)o1,"inconclusive: 35.5 µM [inhibitor, single point]"
8,Cn1c(O)c(N=NC(=S)Nc2ccccc2F)c2cc(S(=O)(=O)N3CCOCC3)ccc21,"inconclusive: 5.01 µM [inhibitor, partial curve]"
9,CC(C)CC(=O)Nc1nc(-c2ccc(S(=O)(=O)N3CCOCC3)cc2)cs1,inactive
10,COc1ccc(N2CCN(C(=O)c3cc(C)on3)CC2)cc1,inactive
11,CN(C)/C=C1/N=C(c2ccc(Cl)cc2Cl)OC1=O,"inconclusive: 3.26 µM [activator, partial curve, poor fit]"
12,COc1ccc(S(=O)(=O)N/N=C(/C)c2ccc(C)o2)cc1,inactive
13,N#CC(C#N)=C1NC2(CCCC2)Cc2ccccc21,inactive
14,CCCCN(C)CCn1c(=S)[nH]c2ccc(N3CCOCC3)cc2c1=O,"inconclusive: 16.4 µM [inhibitor, partial curve, poor fit]"
15,COc1cc2c(C(=O)N3CCN(C)CC3)c(CSc3ccccc3)n(C)c2cc1Br,"inconclusive: 20 µM [inhibitor, single point]"
16,COc1ccc(NC(=O)Cc2coc3ccc4ccccc4c23)cc1S(=O)(=O)N1CCOCC1,"inconclusive: 35.5 µM [inhibitor, single point]"
17,Cc1ccc(C(NC(=O)c2ccccc2)C(Cl)(Cl)Cl)cc1 (stereo not given),"inconclusive: 0.631 µM [inhibitor, full curve, poor fit]"
18,CC1CCN(C(=O)c2ccc(NC3=C(Cl)C(=O)N(Cc4ccccc4)C3=O)cc2)CC1,"inconclusive: 22.4 µM [inhibitor, single point]"
19,Cc1cc(NC(=O)c2cccs2)n(-c2ccccc2)n1,"inconclusive: 8.2 µM [inhibitor, partial curve, poor fit]"
20,COc1ccccc1Nc1nc(N)nc(CN2CCc3ccccc3C2)n1,inactive
21,O=C(Nc1ccc(Br)cc1)C1OCCc2ccccc21 (stereo not given),inactive
22,CC(C)(C)C(=O)N1CCN(CCN2C(=O)c3cccc4cccc(c34)C2=O)CC1,inactive

# For convenience, part of the list above.
row,SMILES,Potency
17,Cc1ccc(C(NC(=O)c2ccccc2)C(Cl)(Cl)Cl)cc1 (stereo not given),"inconclusive: 0.631 µM [inhibitor, full curve, poor fit]"
18,CC1CCN(C(=O)c2ccc(NC3=C(Cl)C(=O)N(Cc4ccccc4)C3=O)cc2)CC1,"inconclusive: 22.4 µM [inhibitor, single point]"

# Copied from the list.
# `CC1NC(C)(C)Cc2c1ccc1ccccc21` (stereo not given) | Potency: inconclusive: 35.5 µM [inhibitor, partial curve, poor fit]
# `COc1ccccc1N1CCN(C(=O)c2ccccc2N(C)S(=O)(=O)c2ccc(C)cc2)CC1` | Potency: inconclusive: 17.8 µM [inhibitor, single point]
# `COC1OC(CO)C(N=C(C)C)C1O` (stereo not given) | Potency: inconclusive: 1.12 µM [activator, full curve]
